Some entries repeat one wording, which the source may state once for all of them.
What was measured:
[1] = Fluoride-triggered (TBAF) chemiluminescent decomposition of dioxetanes in DMSO; format: physicochemical; conditions: for total chemiluminescence intensity generated by fluoride-triggering, compared: 10 μL of 10^-6 M dioxetane with 50 μL of 1M TBAF in DMSO; for Total intensity: [F-] 1M, DMSO
Description: Chemiluminescence intensities and rate measurements were performed using either a Turner Designs (Sunnyvale, Calif.) model TD-20e luminometer or a luminometer built in house (Black Box) which uses a photon counting photomultiplier. Temperature control of samples analyzed in the luminometers was achieved by means of a circulating bath connected to the instrument. Quantitative measurement of light intensities on the Turner luminometer was extended beyond the 10^4 linear range of the detector by a neutral density filter. Data collection was controlled by an Apple MacIntosh SE/30 computer using the LUMISOFT data reduction program (Lumigen, Inc., Southfield, Mich.).
Stock solutions of dioxetanes 2c, 2e, 2g and for comparison, 4-(3-t-butyldimethylsilyloxyphenyl)-4-methoxyspiro [1,2-dioxetane-3,2'-tricyclo[3.3.1.1^3,7 ]decane] (2j), (preparation described in U.S. Pat. No. 4,962,192) were made to a concentration of 10^-6 M in DMSO. Serial dilutions in DMSO were made as required. Ten μL aliquots were triggered in 7×50 mm polypropylene tubes in a Turner Designs TD-20e luminometer by injection of 50 μL of a solution of tetra-n-butylammonium fluoride (TBAF) in DMSO (1M-10^-4 M) in the appropriate solvent, typically DMSO. Light intensity was attenuated when needed by a neutral density filter. All experiments were conducted at ambient temperature. Peak light intensity and decay rate diminished as the fluoride concentration was decreased. At the lowest concentration of fluoride, decay kinetics were not cleanly first order.
The half lives for decay were essentially independent of dioxetane concentration.
The rates of fluoride-triggered decomposition of dioxetanes 2c, h, i and j were compared in DMSO under identical conditions, i.e. 10 μL aliquot of a 10^-6 M solution of dioxetane with 50 μL of 1M TBAF in DMSO. […]

[2] = tested on: alkaline phosphatase; assay: Relative chemiluminescence quantum yields: total light after complete dephosphorylation by alkaline phosphatase; format: biochemical
[3] = tested on: alkaline phosphatase; assay: Chemiluminescent detection of alkaline phosphatase on nylon membrane (X-ray film); format: biochemical; conditions: 1.1 fmol to 1.1 amol AP on nylon, 0.33 mM dioxetane, 1 mg/mL Enhancer A
[4] = Enhancer A (1 mg/mL), 100 μL, 3.36×10^-13 mol AP
[5] = Enhancer B (0.5 mg/mL), 100 μL, 3.36×10^-13 mol AP
[6] = Enhancer C (0.5 mg/mL), 100 μL, 3.36×10^-13 mol AP
[7] = Enhancer: None (0.2M buffer), 500 μL, pH 9.6
[8] = Enhancer: None (0.75M buffer), 500 μL, pH 9.6

SMILES | total chemiluminescence intensity generated by fluoride-triggering, compared [1] | Total Light Intensity [2, 4] | Total Light Intensity [2, 5] | Total Light Intensity [2, 6] | Total Light Intensity [2, 7] | Total Light Intensity [2, 8] | detection of alkaline phosphatase on membrane, images compared [3] | also measured
COC1(c2cccc(OC(C)=O)c2)OOC1(C(C)C)C(C)C (stereo not drawn) [Dioxetane 2c] | same chemiluminescence output within a factor of two | – | – | – | – | – | – | –
COC1(c2cccc(OP(=O)(O)O)c2)OOC1(C(C)C)C(C)C (stereo not drawn) [Dioxetane 2f] | – | 1.19 × 10^7 RLU | 1.65 × 10^6 RLU | 4.15 × 10^7 RLU | 2.82 × 10^5 RLU | 5.55 × 10^4 RLU | equivalent images and detection sensitivity | –
COC1(c2cccc(O[Si](C)(C)C(C)(C)C)c2)OOC1(C1CC1)C1CC1 (stereo not drawn) [Dioxetane 2g] | same chemiluminescence output within a factor of two | – | – | – | – | – | – | –
COC1(c2cccc(O[Si](C)(C)C(C)(C)C)c2)OOC1(C1CCCCC1)C1CCCCC1 (stereo not drawn) [Dioxetane 2h] | same chemiluminescence output within a factor of two | – | – | – | – | – | – | signal relative to background ([1]; 10^-9 M dioxetane solution, 50 μL of 1M TBAF in DMSO): 1.5 times; Total intensity ([1]; [Dioxetane 2h] 10^-6 M): 1.9 × 10^4 TLU; Total intensity ([1]; [Dioxetane 2h] 10^-7 M): 2.0 × 10^3 TLU; Total intensity ([1]; [Dioxetane 2h] 10^-8 M): 2.1 × 10^2 TLU; Total intensity ([1]; [Dioxetane 2h] 10^-9 M): 1.5 × 10^1 TLU
COC1(c2cccc(O)c2)OOC1(C1CCCCC1)C1CCCCC1 (stereo not drawn) [Dioxetane 2i] | same chemiluminescence output within a factor of two | – | – | – | – | – | – | –
COC1(c2cccc(OP(=O)(O)O)c2)OOC12C1CC3CC(C1)CC2C3 (stereo not drawn) [Dioxetane 2k] | – | 9.0 × 10^6 RLU | 2.09 × 10^6 RLU | 3.65 × 10^7 RLU | 1.55 × 10^5 RLU | 4.41 × 10^4 RLU | equivalent images and detection sensitivity | –
